Publication PMC10556790
Like-named read-outs stand apart in the source and are kept apart here. Results are given in words; binding and its absence hold for the method and conditions named. Binding seen in cells or lysates may run through a third protein. Some entries that bind do so weakly or less than the wild type.

Chains of the proteins cited; added tags and fusions are not shown. Residues count along the entry.
UniProt O76031, residues 57-633: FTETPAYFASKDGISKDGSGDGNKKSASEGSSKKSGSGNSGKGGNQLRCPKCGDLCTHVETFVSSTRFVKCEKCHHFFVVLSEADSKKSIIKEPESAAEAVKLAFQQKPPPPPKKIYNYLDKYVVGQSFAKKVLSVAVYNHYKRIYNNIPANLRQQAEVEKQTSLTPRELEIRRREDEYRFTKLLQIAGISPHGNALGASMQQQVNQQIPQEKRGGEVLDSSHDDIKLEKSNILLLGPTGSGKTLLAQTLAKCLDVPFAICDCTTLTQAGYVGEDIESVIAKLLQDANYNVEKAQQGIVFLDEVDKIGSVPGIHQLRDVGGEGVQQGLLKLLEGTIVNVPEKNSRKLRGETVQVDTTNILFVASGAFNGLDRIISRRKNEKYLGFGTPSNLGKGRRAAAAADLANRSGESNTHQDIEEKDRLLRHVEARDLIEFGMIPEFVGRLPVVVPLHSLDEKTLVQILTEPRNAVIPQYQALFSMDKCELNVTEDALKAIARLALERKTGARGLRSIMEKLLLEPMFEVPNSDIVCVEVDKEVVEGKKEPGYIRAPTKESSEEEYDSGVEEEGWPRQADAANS
UniProt P40939, residues 37-763: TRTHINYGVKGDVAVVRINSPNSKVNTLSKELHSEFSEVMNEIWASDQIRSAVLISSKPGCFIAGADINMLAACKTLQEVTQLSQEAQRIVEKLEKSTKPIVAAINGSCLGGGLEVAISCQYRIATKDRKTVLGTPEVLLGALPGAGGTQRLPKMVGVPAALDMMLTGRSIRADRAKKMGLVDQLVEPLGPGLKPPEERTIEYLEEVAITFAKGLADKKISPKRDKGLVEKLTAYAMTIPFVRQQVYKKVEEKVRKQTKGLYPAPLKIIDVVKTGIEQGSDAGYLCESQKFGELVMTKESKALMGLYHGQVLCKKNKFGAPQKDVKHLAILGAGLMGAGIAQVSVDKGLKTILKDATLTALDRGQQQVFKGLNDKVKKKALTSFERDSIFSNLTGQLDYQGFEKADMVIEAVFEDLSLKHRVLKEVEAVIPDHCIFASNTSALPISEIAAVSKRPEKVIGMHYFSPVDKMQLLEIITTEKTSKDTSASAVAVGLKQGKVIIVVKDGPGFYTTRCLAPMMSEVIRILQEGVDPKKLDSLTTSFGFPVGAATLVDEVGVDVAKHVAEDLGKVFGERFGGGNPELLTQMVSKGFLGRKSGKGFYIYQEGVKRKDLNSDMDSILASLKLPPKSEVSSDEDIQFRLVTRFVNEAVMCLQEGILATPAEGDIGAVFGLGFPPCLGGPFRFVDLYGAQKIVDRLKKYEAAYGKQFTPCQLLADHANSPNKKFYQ

T1: Trifunctional enzyme subunit beta, mitochondrial (human (endogenous in FT293 and HepG2)) (UniProt P55084)
T1 sequence: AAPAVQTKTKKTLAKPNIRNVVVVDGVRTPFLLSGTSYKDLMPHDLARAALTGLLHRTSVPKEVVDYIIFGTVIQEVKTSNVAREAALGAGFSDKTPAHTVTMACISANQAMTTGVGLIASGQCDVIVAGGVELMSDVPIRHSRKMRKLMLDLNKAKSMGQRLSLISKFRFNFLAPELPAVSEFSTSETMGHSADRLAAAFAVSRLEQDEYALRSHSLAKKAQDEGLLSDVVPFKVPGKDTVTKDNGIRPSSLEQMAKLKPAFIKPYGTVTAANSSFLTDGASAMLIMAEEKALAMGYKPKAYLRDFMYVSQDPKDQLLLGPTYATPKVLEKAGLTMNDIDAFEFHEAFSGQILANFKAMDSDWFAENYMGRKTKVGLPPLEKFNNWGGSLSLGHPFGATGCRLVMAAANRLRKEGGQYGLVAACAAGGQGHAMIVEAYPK


Experiments:
[1] = target: T1, Trifunctional enzyme subunit beta, mitochondrial (human (endogenous in FT293 and HepG2)); test: co-IP; endogenous HADHB precipitated with anti-HADHB antibody and Dynabeads Protein G from HepG2 lysate, overnight 4 °C, Western blot; CLPX-WT and CLPX-KO cells, CLPX-WT cells with or without 50 nM Gcg; rabbit IgG as negative control
[2] = target: endogenous CLPX (human (endogenous in HepG2)) (UniProt O76031); test: co-IP; endogenous CLPX precipitated with anti-CLPX antibody and Dynabeads Protein G from HepG2 (CLPX-WT) lysate, overnight 4 °C, Western blot; cells with or without 50 nM Gcg; rabbit IgG as negative control
[3] = target: Trifunctional enzyme subunit alpha, mitochondrial (human (endogenous in FT293 and HepG2)) (UniProt P40939); test: co-IP; endogenous HADHA precipitated with anti-HADHA antibody and Dynabeads Protein G from HepG2 lysate, overnight 4 °C, Western blot; CLPX-WT and CLPX-KO cells, CLPX-WT cells with or without 50 nM Gcg; rabbit IgG as negative control
[4] = target: Trifunctional enzyme subunit alpha, mitochondrial (human (endogenous in FT293 and HepG2)) (UniProt P40939); test: as above; remark: listed apart in the source

Row | binding [1] | binding [2] | binding [3] | binding [4] | Molecule
1 | binds | binds |  |  | Trifunctional enzyme subunit alpha, mitochondrial (from UniProt P40939 37-763)
2 | binds |  | binds |  | endogenous CLPX (from UniProt O76031 57-633)
3 | binds | binds |  | binds | Enoyl-CoA hydratase, mitochondrial (protein, UniProt P30084 28-290) ASGANFEYIIAEKRGKNNTVGLIQLNRPKALNALCDGLIDELNQALKTFEEDPAVGAIVLTGGDKAFAAGADIKEMQNLSFQDCYSSKFLKHWDHLTQVKKPVIAAVNGYAFGGGCELAMMCDIIYAGEKAQFAQPEILIGTIPGAGGTQRLTRAVGKSLAMEMVLTGDRISAQDAKQAGLVSKICPVETLVEEAIQCAEKIASNSKIVVAMAKESVNAAFEMTLTEGSKLEKKLFYSTFATDDRKEGMTAFVEKRKANFKDQ
4 | binds |  |  | binds | hydroxyacyl-CoA dehydrogenase (protein, UniProt Q16836 13-314) SSSSTASASAKKIIVKHVTVIGGGLMGAGIAQVAAATGHTVVLVDQTEDILAKSKKGIEESLRKVAKKKFAENLKAGDEFVEKTLSTIATSTDAASVVHSTDLVVEAIVENLKVKNELFKRLDKFAAEHTIFASNTSSLQITSIANATTRQDRFAGLHFFNPVPVMKLVEVIKTPMTSQKTFESLVDFSKALGKHPVSCKDTPGFIVNRLLVPYLMEAIRLYERGDASKEDIDTAMKLGAGYPMGPFELLDYVGLDTTKFIVDGWHEMDAENPLHQPSPSLNKLVAENKFGKKTGEGFYKYK
5 | binds | binds |  | binds | 3-Ketoacyl-CoA thiolase, mitochondrial (protein, UniProt P42765 1-397) MALLRGVFVVAAKRTPFGAYGGLLKDFTATDLSEFAAKAALSAGKVSPETVDSVIMGNVLQSSSDAIYLARHVGLRVGIPKETPALTINRLCGSGFQSIVNGCQEICVKEAEVVLCGGTESMSQAPYCVRNVRFGTKLGSDIKLEDSLWVSLTDQHVQLPMAMTAENLAVKHKISREECDKYALQSQQRWKAANDAGYFNDEMAPIEVKTKKGKQTMQVDEHARPQTTLEQLQKLPPVFKKDGTVTAGNASGVADGAGAVIIASEDAVKKHNFTPLARIVGYFVSGCDPSIMGIGPVPAISGALKKAGLSLKDMDLVEVNEAFAPQYLAVERSLDLDISKTNVNGGAIALGHPLGGSGSRITAHLVHELRRRGGKYAVGSACIGGGQGIAVIIQSTA
